From PMC2408616, “Modular Organization and Combinatorial Energetics of Proline–Tyrosine Nuclear Localization Signals” (PLoS Biology, 2008)
Substitutions are numbered along the chain they refer to. Names and notes keep the numbering of the source. No constants are given. Whether binding was seen depends on the method and setting. For some of these results: Binding seen in cells or lysates may run through a third protein. Some binding calls cover weakened binding; strength is not graded here. For some of these results: Where a sequence is shown, tags or fusion partners need not be part of it.

Protein sequences, listed by entry. Tags and fused reporters are not part of them. Residues count along the entry.
UniProt P09651, residues 309-357: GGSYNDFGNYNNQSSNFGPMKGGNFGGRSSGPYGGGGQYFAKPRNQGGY
UniProt Q92973: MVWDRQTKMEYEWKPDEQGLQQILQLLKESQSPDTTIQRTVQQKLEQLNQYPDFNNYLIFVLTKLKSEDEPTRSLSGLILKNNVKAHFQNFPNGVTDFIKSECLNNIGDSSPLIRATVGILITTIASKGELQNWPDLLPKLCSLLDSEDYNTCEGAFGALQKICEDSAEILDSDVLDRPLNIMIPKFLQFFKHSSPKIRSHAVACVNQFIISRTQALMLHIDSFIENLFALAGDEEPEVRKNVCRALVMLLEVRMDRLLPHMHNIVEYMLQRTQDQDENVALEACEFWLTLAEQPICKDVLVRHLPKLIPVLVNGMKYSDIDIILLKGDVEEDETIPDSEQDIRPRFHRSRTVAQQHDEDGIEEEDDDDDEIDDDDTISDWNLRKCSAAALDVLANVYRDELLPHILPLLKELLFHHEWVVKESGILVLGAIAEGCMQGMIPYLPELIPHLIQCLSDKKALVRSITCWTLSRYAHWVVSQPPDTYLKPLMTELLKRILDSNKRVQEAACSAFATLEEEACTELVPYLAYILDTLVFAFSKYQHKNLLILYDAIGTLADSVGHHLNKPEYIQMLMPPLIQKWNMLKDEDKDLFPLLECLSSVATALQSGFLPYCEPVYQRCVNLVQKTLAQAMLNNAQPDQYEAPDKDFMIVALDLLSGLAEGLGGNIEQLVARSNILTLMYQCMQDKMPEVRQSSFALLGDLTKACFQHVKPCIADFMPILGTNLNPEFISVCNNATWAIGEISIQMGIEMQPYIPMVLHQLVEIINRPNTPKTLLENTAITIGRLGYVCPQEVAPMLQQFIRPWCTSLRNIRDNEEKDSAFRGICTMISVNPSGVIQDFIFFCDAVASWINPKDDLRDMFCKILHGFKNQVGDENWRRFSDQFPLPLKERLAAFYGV

T1: GST–Hrp1p NLS (S. cerevisiae) (UniProt Q99383)
T1 sequence: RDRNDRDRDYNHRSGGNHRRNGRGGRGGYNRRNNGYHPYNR

T2: GST–Nab2p NLS (S. cerevisiae) (UniProt P32505)
T2 sequence: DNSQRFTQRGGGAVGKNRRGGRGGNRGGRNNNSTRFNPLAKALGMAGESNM

T3: Kap104p (yeast (S. cerevisiae)) (UniProt P38217)
T3 sequence: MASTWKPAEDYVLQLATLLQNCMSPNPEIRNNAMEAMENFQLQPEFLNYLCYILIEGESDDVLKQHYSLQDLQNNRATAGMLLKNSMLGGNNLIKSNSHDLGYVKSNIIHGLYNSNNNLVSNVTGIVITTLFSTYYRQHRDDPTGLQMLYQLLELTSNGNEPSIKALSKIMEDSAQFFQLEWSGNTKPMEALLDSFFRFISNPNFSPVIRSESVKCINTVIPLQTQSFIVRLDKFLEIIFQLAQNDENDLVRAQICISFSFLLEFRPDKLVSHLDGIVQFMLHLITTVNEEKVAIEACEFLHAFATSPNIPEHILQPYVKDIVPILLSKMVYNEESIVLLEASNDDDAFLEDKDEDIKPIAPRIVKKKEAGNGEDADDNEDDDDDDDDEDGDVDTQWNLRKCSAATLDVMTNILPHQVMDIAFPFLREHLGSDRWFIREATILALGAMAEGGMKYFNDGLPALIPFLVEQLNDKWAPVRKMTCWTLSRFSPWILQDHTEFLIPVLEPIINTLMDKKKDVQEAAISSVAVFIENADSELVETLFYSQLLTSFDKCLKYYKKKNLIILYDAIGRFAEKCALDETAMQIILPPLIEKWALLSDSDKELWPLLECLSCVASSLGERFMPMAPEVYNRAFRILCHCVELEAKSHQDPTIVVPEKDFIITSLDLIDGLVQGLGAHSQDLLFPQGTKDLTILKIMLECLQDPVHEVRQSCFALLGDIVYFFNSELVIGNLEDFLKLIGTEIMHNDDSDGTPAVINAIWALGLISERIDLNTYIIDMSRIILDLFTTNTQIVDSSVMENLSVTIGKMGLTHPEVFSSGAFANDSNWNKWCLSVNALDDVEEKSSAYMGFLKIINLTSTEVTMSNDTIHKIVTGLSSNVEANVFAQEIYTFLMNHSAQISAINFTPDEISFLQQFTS

T4: GST–hnRNP M NLS (human) (UniProt P52272)
T4 sequence: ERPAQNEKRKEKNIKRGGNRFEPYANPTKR

B1: MBP–Nab2p NLS L239P (domain or fragment, UniProt P32505 201-251)
chain: T2 sequence with L39P
B2: Kap104p (receptor)
chain: T3 sequence

Legend:
[1] = target: T1, GST–Hrp1p NLS (S. cerevisiae); experiment: pull-down; Kapβ2 with immobilized Nab2p NLS and Hrp1p NLS, in the presence and absence of RanGTP; Coomassie (Figure S2)
[2] = target: T2, GST–Nab2p NLS (S. cerevisiae); experiment: as above
[3] = target: T3, Kap104p (yeast (S. cerevisiae)); experiment: ITC; 90–350 μM MBP-NLS titrated into 9–35 μM Kap104p in the cell; 20 °C; 20 mM Tris pH 7.5, 100 mM NaCl, 2 mM β-mercaptoethanol, 10% glycerol; 35 injections of 8 μl; single-site model; both purified
GST–hnRNP A1 NLS (human) = GST–hnRNP A1 NLS (human) (UniProt P09651); experiment: pull-down; ~30 μg Kap104p added to ~10 μg GST protein immobilized on 20 μl glutathione sepharose; washes with TB buffer (20 mM HEPES pH 7.3, 110 mM KAc, 2 mM MgAc, 1 mM EGTA, 2 mM DTT, 20% glycerol); second incubation with buffer or RanGTP (5-fold molar excess); SDS-PAGE, Coomassie; both purified
GST–hnRNP M NLS (human) = target: T4, GST–hnRNP M NLS (human); experiment: as above
[4] = target: T3, Kap104p (yeast (S. cerevisiae)); experiment: condition: 90–350 μM MBP-NLS titrated into 9–35 μM Kap104p; ITC; 90–350 μM MBP-NLS titrated into 9–35 μM Kap104p in the cell; 20 °C; 20 mM Tris pH 7.5, 100 mM NaCl, 2 mM β-mercaptoethanol, 10% glycerol; 35 injections of 8 μl; single-site model; both purified

Molecule	binding [4]	further results
Karyopherin β2 (from UniProt Q92973 1-898) (receptor)	–	binding [1]: binds; binding [2]: binds
B1	–	binding [3]: binds
B2	–	binding (GST–hnRNP A1 NLS (human)): no binding; binding (GST–hnRNP M NLS (human)): binds
RDRNDRDRDYNHRSGGNHRRNGRGGRGGYNRRNNGYHPGNR (domain or fragment, UniProt Q99383 494-534) [MBP–Hrp1p NLS Y532G]	no binding	–
RDRNDRDRDYNHRSGGNHRRNGRGGRGGYNRRNNGYHPINR (domain or fragment, UniProt Q99383 494-534) [MBP–Hrp1p NLS Y532I]	no binding	–
RDRNDRDRDYNHRSGGNHRRNGRGGRGGYNRRNNGYHPKNR (domain or fragment, UniProt Q99383 494-534) [MBP–Hrp1p NLS Y532K]	no binding	–
RDRNDRDRDYNHRSGGNHRRNGRGGRGGYNRRNNGYHPLNR (domain or fragment, UniProt Q99383 494-534) [MBP–Hrp1p NLS Y532L]	no binding	–
RDRNDRDRDYNHRSGGNHRRNGRGGRGGYNRRNNGYHPNNR (domain or fragment, UniProt Q99383 494-534) [MBP–Hrp1p NLS Y532N]	no binding	–
RDRNDRDRDYNHRSGGNHRRNGRGGRGGYNRRNNGYHPPNR (domain or fragment, UniProt Q99383 494-534) [MBP–Hrp1p NLS Y532P]	no binding	–
RDRNDRDRDYNHRSGGNHRRNGRGGRGGYNRRNNGYHPQNR (domain or fragment, UniProt Q99383 494-534) [MBP–Hrp1p NLS Y532Q]	no binding	–
RDRNDRDRDYNHRSGGNHRRNGRGGRGGYNRRNNGYHPRNR (domain or fragment, UniProt Q99383 494-534) [MBP–Hrp1p NLS Y532R]	no binding	–
RDRNDRDRDYNHRSGGNHRRNGRGGRGGYNRRNNGYHPSNR (domain or fragment, UniProt Q99383 494-534) [MBP–Hrp1p NLS Y532S]	no binding	–
RDRNDRDRDYNHRSGGNHRRNGRGGRGGYNRRNNGYHPTNR (domain or fragment, UniProt Q99383 494-534) [MBP–Hrp1p NLS Y532T]	no binding	–
RDRNDRDRDYNHRSGGNHRRNGRGGRGGYNRRNNGYHPVNR (domain or fragment, UniProt Q99383 494-534) [MBP–Hrp1p NLS Y532V]	no binding	–
RDRNDRDRDYNHRSGGNHRRNGRGGRGGYNRRNNGYHPWNR (domain or fragment, UniProt Q99383 494-534) [MBP–Hrp1p NLS Y532W]	no binding	–
RDRNDRDRDYNHRSGGNHRRNGRGGRGGYNRRNNGYHAANR (domain or fragment, UniProt Q99383 494-534) [MBP–Hrp1p NLS 531PY532/AA]	–	binding [3]: no binding (tested: likely weaker than 10 μM)
RDRNDRDRDYNHRSGGNHRRNGRGGRGGYNRRNNGYHPANR (domain or fragment, UniProt Q99383 494-534) [MBP–Hrp1p NLS Y532A]	no binding	–
RDRNDRDRDYNHRSGGNHRRNGRGGRGGYNRRNNGYHPCNR (domain or fragment, UniProt Q99383 494-534) [MBP–Hrp1p NLS Y532C]	no binding	–
RDRNDRDRDYNHRSGGNHRRNGRGGRGGYNRRNNGYHPDNR (domain or fragment, UniProt Q99383 494-534) [MBP–Hrp1p NLS Y532D]	no binding	–
RDRNDRDRDYNHRSGGNHRRNGRGGRGGYNRRNNGYHPENR (domain or fragment, UniProt Q99383 494-534) [MBP–Hrp1p NLS Y532E]	no binding	–
